± gives the standard deviation of the averaged measurements. Values are relative to the signal before dosing, not to a vehicle control; the signal also falls without drug.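 Labels refer to human fibroblasts, largely primary: uterine (C12385, HUF), lung (H6013), bone (Hs27A), adrenal (HADF), skin (WS1), plus mammary HMF and breast cancer-associated Hs343T. Cancer lines are basal-like or mesenchymal-like triple-negative breast cancer. The paper counts as hits responses shifting over 3x the replicate standard deviation. The tissue of the other fibroblasts is not given here.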
System: MDAMB468
Experiment: relative JC-1 red fluorescence (viability) vs pre-drug, coculture with fibroblast (fraction); higher = more viable cancer cells
Method: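 JC-1 labelled TNBC cells cocultured 1:1 (1,500 cells each) with CellTrace Violet stained primary or stromal fibroblasts in 384-well plates in FluoroBrite medium, treated with one of 42 anticancer drugs at 0.1, 1, 10 or 100 uM. JC-1 red fluorescence (mitochondrial integrity in cancer cells only) was read by plate reader every 8 h for 72 h. Values are normalised to each well's pre-drug value. The stock of one drug was tenfold lower, so its dose labels may be too high.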

CN(Cc1cnc2nc(N)nc(N)c2n1)c1ccc(C(=O)N[C@@H](CCC(=O)O)C(=O)O)cc1 [Methotrexate]
relative JC-1 red fluorescence
Conditions | 8 h | 16 h | 24 h | 32 h | 40 h | 48 h | 56 h | 64 h | 72 h
10 µM, coculture fibroblast: C12385 | 0.931 ± 0.012 | 0.87 ± 0.047 | 0.855 ± 0.046 | 0.82 ± 0.044 | 0.787 ± 0.035 | 0.79 ± 0.026 | 0.742 ± 0.027 | 0.715 ± 0.015 | 0.703 ± 0.012
10 µM, coculture fibroblast: H6013 | 0.8758 ± 0.0071 | 0.817 ± 0.012 | 0.769 ± 0.016 | 0.756 ± 0.02 | 0.714 ± 0.026 | 0.721 ± 0.035 | 0.685 ± 0.037 | 0.67 ± 0.031 | 0.605 ± 0.04
10 µM, coculture fibroblast: H6019 | 0.8314 ± 0.0068 | 0.808 ± 0.024 | 0.771 ± 0.029 | 0.72 ± 0.024 | 0.679 ± 0.028 | 0.6665 ± 0.0052 | 0.625 ± 0.012 | 0.601 ± 0.0081 | 0.584 ± 0.0095
10 µM, coculture fibroblast: H6076 | 0.922 ± 0.046 | 0.926 ± 0.053 | 0.87 ± 0.011 | 0.8636 ± 0.0036 | 0.7922 ± 0.0066 | 0.789 ± 0.03 | 0.741 ± 0.042 | 0.726 ± 0.065 | 0.787 ± 0.091
10 µM, coculture fibroblast: H6231 | 0.8623 ± 0.0012 | 0.9822 ± 0.0067 | 0.841 ± 0.015 | 0.836 ± 0.028 | 0.767 ± 0.029 | 0.743 ± 0.031 | 0.689 ± 0.035 | 0.662 ± 0.036 | 0.646 ± 0.033
10 µM, coculture fibroblast: HADF | 0.9149 ± 0.0086 | 0.852 ± 0.037 | 0.805 ± 0.041 | 0.797 ± 0.04 | 0.756 ± 0.038 | 0.747 ± 0.039 | 0.704 ± 0.046 | 0.691 ± 0.037 | 0.626 ± 0.038
10 µM, coculture fibroblast: HCFa | 0.86393 ± 0.00049 | 0.784 ± 0.0027 | 0.722 ± 0.0094 | 0.69 ± 0.028 | 0.613 ± 0.026 | 0.6 ± 0.021 | 0.543 ± 0.02 | 0.513 ± 0.021 | 0.472 ± 0.019
10 µM, coculture fibroblast: HCPF | 0.8909 ± 0.0016 | 0.968 ± 0.045 | 0.885 ± 0.044 | 0.862 ± 0.053 | 0.797 ± 0.039 | 0.766 ± 0.032 | 0.703 ± 0.023 | 0.683 ± 0.018 | 0.6612 ± 0.003
10 µM, coculture fibroblast: HHSteC | 0.9134 ± 0.002 | 0.8743 ± 0.0013 | 0.8358 ± 0.0048 | 0.8082 ± 0.0033 | 0.77 ± 0.02 | 0.774 ± 0.021 | 0.708 ± 0.038 | 0.696 ± 0.042 | 0.651 ± 0.043
10 µM, coculture fibroblast: HMF | 0.83 ± 0.014 | 0.968 ± 0.016 | 0.897 ± 0.017 | 0.8732 ± 0.0011 | 0.8033 ± 0.006 | 0.7783 ± 0.0056 | 0.71804 ± 0.00017 | 0.7009 ± 0.0019 | 0.67983 ± 0.00011
10 µM, coculture fibroblast: HPFa | 0.948 ± 0.042 | 0.908 ± 0.019 | 0.883 ± 0.035 | 0.817 ± 0.039 | 0.796 ± 0.032 | 0.794 ± 0.022 | 0.735 ± 0.015 | 0.724 ± 0.017 | 0.655 ± 0.013
10 µM, coculture fibroblast: HUF | 0.912 ± 0.012 | 0.8303 ± 0.0039 | 0.788 ± 0.015 | 0.732 ± 0.013 | 0.6909 ± 0.0048 | 0.6821 ± 0.0015 | 0.637 ± 0.0095 | 0.6256 ± 0.0035 | 0.6153 ± 0.0019
10 µM, coculture fibroblast: Hs5 | 0.868 ± 0.17 | 0.9551 ± 0.0074 | 0.9017 ± 0.0052 | 0.885 ± 0.01 | 0.812 ± 0.0088 | 0.791 ± 0.021 | 0.757 ± 0.011 | 0.736 ± 0.014 | 0.782 ± 0.036
10 µM, coculture fibroblast: Hs27A | 0.894 ± 0.02 | 0.866 ± 0.013 | 0.832 ± 0.024 | 0.824 ± 0.018 | 0.782 ± 0.037 | 0.789 ± 0.036 | 0.751 ± 0.02 | 0.746 ± 0.024 | 0.6889 ± 0.0059
10 µM, coculture fibroblast: Hs343T | 0.859 ± 0.036 | 0.939 ± 0.037 | 0.867 ± 0.013 | 0.839 ± 0.013 | 0.763 ± 0.026 | 0.733 ± 0.032 | 0.679 ± 0.02 | 0.657 ± 0.016 | 0.631 ± 0.012
10 µM, coculture fibroblast: WS1 | 0.881 ± 0.014 | 0.781 ± 0.028 | 0.734 ± 0.031 | 0.69 ± 0.032 | 0.633 ± 0.023 | 0.595 ± 0.043 | 0.561 ± 0.049 | 0.533 ± 0.057 | 0.521 ± 0.066
100 µM, coculture fibroblast: C12385 | 0.903 ± 0.016 | 0.841 ± 0.016 | 0.811 ± 0.022 | 0.748 ± 0.03 | 0.699 ± 0.038 | 0.682 ± 0.034 | 0.636 ± 0.026 | 0.607 ± 0.028 | 0.59 ± 0.033
100 µM, coculture fibroblast: H6013 | 0.842 ± 0.013 | 0.818 ± 0.011 | 0.759 ± 0.013 | 0.731 ± 0.017 | 0.698 ± 0.015 | 0.704 ± 0.013 | 0.672 ± 0.013 | 0.665 ± 0.021 | 0.604 ± 0.012
100 µM, coculture fibroblast: H6019 | 0.8345 ± 0.0069 | 0.806 ± 0.021 | 0.768 ± 0.034 | 0.706 ± 0.0094 | 0.664 ± 0.013 | 0.6517 ± 0.0015 | 0.6127 ± 0.0039 | 0.5909 ± 0.0023 | 0.561 ± 0.022
100 µM, coculture fibroblast: H6076 | 0.9141 ± 0.0091 | 0.933 ± 0.022 | 0.873 ± 0.01 | 0.87 ± 0.028 | 0.8 ± 0.035 | 0.792 ± 0.018 | 0.747 ± 0.013 | 0.7322 ± 0.007 | 0.794 ± 0.011
100 µM, coculture fibroblast: H6231 | 0.842 ± 0.018 | 0.878 ± 0.048 | 0.81 ± 0.03 | 0.799 ± 0.032 | 0.73 ± 0.032 | 0.703 ± 0.039 | 0.648 ± 0.029 | 0.625 ± 0.036 | 0.611 ± 0.028
100 µM, coculture fibroblast: HADF | 0.8673 ± 0.0024 | 0.857 ± 0.023 | 0.7879 ± 0.0052 | 0.772 ± 0.0095 | 0.714 ± 0.014 | 0.703 ± 0.023 | 0.645 ± 0.027 | 0.623 ± 0.023 | 0.559 ± 0.025
100 µM, coculture fibroblast: HCFa | 0.869 ± 0.017 | 0.848 ± 0.016 | 0.784 ± 0.015 | 0.748 ± 0.039 | 0.691 ± 0.051 | 0.674 ± 0.053 | 0.621 ± 0.064 | 0.595 ± 0.066 | 0.548 ± 0.074
100 µM, coculture fibroblast: HCPF | 0.846 ± 0.034 | 0.926 ± 0.035 | 0.846 ± 0.013 | 0.829 ± 0.02 | 0.763 ± 0.029 | 0.736 ± 0.025 | 0.681 ± 0.025 | 0.661 ± 0.023 | 0.633 ± 0.031
100 µM, coculture fibroblast: HHSteC | 0.897 ± 0.019 | 0.875 ± 0.015 | 0.831 ± 0.023 | 0.799 ± 0.028 | 0.764 ± 0.031 | 0.764 ± 0.041 | 0.716 ± 0.043 | 0.697 ± 0.036 | 0.649 ± 0.044
100 µM, coculture fibroblast: HMF | 0.8356 ± 0.0083 | 0.94 ± 0.013 | 0.867 ± 0.025 | 0.821 ± 0.031 | 0.748 ± 0.027 | 0.714 ± 0.041 | 0.655 ± 0.037 | 0.63 ± 0.042 | 0.607 ± 0.044
100 µM, coculture fibroblast: HPFa | 0.956 ± 0.019 | 0.894 ± 0.031 | 0.855 ± 0.026 | 0.798 ± 0.013 | 0.7846 ± 0.0055 | 0.786 ± 0.0085 | 0.733 ± 0.0082 | 0.7334 ± 0.0041 | 0.671 ± 0.0078
100 µM, coculture fibroblast: HUF | 0.9171 ± 0.0024 | 0.8392 ± 0.00092 | 0.79333 ± 0.00068 | 0.7367 ± 0.005 | 0.691 ± 0.011 | 0.661 ± 0.014 | 0.622 ± 0.012 | 0.608 ± 0.0079 | 0.58345 ± 0.00015
100 µM, coculture fibroblast: Hs5 | 0.863 ± 0.17 | 0.9212 ± 0.0023 | 0.891 ± 0.023 | 0.862 ± 0.035 | 0.796 ± 0.041 | 0.746 ± 0.046 | 0.713 ± 0.056 | 0.682 ± 0.061 | 0.711 ± 0.068
100 µM, coculture fibroblast: Hs27A | 0.8574 ± 0.0078 | 0.824 ± 0.017 | 0.74 ± 0.029 | 0.721 ± 0.044 | 0.653 ± 0.055 | 0.642 ± 0.063 | 0.591 ± 0.054 | 0.564 ± 0.051 | 0.529 ± 0.045
100 µM, coculture fibroblast: Hs343T | 0.831 ± 0.015 | 0.887 ± 0.027 | 0.8334 ± 0.0078 | 0.808 ± 0.0074 | 0.7253 ± 0.007 | 0.696 ± 0.013 | 0.651 ± 0.024 | 0.634 ± 0.016 | 0.619 ± 0.017
100 µM, coculture fibroblast: WS1 | 0.8636 ± 0.0048 | 0.792 ± 0.014 | 0.756 ± 0.033 | 0.693 ± 0.028 | 0.64 ± 0.03 | 0.601 ± 0.036 | 0.563 ± 0.041 | 0.534 ± 0.052 | 0.51 ± 0.048
